Results on 1 substance are retold here after paper PMC13225845.

Protein sequences, listed by entry. Tags and fused reporters are not part of them.
UniProt Q09725: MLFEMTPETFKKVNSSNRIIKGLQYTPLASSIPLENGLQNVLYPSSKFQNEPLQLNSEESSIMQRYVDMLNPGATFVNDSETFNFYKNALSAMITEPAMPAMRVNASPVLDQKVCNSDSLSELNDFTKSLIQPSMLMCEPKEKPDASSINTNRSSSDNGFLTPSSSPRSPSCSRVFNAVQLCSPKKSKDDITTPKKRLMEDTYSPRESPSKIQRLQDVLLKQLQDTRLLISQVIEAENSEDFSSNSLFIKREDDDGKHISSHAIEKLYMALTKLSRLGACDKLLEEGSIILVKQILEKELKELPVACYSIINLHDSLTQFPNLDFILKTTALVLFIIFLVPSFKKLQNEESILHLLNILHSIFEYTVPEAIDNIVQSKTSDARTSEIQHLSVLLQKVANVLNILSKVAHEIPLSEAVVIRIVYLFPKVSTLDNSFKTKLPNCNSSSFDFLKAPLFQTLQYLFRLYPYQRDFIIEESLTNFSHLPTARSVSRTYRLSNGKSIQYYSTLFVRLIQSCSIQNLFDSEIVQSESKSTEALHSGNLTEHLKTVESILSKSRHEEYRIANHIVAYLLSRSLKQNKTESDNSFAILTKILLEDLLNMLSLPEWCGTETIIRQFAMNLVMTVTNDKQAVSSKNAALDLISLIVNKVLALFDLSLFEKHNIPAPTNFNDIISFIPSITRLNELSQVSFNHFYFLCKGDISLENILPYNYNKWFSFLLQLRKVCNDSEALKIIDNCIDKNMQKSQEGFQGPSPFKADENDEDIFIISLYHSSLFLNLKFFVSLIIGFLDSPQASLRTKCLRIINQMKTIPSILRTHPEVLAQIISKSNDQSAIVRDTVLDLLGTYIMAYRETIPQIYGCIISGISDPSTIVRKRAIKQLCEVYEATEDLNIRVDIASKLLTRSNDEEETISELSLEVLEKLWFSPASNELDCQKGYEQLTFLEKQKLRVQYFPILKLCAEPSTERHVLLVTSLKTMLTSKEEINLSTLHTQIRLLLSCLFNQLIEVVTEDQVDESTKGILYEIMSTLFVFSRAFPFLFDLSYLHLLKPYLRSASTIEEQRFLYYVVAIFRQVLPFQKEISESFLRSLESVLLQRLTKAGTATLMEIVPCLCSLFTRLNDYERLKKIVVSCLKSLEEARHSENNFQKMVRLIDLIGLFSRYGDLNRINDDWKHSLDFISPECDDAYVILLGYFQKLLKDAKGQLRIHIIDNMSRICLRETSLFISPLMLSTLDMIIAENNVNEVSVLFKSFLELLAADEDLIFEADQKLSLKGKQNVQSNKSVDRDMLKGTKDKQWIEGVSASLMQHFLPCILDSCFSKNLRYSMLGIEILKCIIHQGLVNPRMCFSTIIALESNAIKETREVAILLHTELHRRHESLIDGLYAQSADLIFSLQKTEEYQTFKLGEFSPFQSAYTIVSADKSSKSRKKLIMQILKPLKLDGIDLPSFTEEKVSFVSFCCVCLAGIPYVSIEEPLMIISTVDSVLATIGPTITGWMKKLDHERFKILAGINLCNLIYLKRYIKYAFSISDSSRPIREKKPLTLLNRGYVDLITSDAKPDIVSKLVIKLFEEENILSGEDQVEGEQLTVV
UniProt Q9Y7K2: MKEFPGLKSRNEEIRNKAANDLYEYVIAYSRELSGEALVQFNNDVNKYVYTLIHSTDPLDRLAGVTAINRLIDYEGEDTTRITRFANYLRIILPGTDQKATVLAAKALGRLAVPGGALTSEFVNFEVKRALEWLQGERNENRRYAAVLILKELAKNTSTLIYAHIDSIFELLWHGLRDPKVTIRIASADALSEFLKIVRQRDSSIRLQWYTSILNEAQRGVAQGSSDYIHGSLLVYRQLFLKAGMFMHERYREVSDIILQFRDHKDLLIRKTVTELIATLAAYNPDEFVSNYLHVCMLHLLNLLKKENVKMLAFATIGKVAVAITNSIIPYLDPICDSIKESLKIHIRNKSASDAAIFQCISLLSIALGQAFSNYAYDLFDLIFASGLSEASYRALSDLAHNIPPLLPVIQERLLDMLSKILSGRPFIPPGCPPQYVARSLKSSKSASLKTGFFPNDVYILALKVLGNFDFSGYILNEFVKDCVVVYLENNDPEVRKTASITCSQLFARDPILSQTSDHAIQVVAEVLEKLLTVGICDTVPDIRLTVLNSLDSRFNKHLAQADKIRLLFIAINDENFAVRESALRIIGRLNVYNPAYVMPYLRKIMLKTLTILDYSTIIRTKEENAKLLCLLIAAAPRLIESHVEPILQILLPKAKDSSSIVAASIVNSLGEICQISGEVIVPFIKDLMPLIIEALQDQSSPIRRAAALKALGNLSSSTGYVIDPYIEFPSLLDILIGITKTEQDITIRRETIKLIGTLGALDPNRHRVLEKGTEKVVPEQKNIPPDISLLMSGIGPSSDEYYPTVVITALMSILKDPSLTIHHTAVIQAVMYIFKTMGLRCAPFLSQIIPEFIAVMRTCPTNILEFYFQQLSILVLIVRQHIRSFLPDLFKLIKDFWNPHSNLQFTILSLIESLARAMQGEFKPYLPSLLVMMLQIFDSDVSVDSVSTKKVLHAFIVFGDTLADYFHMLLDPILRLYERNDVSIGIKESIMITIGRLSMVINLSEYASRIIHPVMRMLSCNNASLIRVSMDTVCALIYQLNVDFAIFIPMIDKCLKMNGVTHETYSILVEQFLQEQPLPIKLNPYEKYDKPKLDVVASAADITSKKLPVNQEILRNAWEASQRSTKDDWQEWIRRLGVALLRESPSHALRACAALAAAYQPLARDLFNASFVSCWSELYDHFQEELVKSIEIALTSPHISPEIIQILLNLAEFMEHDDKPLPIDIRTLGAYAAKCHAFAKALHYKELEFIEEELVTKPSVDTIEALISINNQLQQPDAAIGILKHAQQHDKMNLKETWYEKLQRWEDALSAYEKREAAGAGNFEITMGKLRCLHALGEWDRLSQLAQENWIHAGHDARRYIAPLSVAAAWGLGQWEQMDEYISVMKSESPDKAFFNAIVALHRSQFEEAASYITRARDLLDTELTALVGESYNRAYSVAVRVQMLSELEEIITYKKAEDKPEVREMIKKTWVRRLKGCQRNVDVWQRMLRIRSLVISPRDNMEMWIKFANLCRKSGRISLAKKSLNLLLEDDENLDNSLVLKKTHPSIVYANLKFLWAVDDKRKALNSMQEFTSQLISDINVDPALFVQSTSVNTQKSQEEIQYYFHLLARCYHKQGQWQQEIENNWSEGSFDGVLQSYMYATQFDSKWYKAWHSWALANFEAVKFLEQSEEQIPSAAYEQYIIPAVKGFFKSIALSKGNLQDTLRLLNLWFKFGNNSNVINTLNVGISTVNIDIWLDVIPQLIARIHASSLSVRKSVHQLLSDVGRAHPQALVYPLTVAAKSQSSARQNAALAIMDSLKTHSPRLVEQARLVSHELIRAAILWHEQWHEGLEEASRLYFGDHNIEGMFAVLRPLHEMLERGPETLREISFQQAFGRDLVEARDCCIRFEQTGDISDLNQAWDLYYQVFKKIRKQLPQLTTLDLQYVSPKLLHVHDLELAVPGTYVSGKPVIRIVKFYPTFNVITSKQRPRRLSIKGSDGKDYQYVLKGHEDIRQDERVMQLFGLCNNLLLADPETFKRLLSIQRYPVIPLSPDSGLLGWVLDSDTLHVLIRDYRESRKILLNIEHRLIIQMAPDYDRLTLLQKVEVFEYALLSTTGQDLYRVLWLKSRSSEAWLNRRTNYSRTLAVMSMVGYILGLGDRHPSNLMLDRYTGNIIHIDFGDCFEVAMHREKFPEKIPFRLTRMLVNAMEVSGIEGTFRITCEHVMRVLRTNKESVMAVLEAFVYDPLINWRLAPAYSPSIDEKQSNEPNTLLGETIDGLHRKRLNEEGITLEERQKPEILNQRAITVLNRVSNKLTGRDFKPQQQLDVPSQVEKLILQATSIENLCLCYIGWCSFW

These are yes or no findings as the source states them, for the method shown. Binding seen in cells or lysates may run through a third protein. A yes stands for co-enrichment or nearness to the bait. Other partners may have been found.

In experiment [1] the target is Mis4-GFP (cohesin loader Mis4) (S. pombe) (UniProt Q09725). Nature of the experiment: affinity purification with mass spectrometry; Mis4-GFP or Rad21-PK affinity-purified from protein extracts of G1-arrested cells (cdc10-129 arrest), triplicate samples, label-free mass spectrometry; repeated in mip1-R401G and pef1Δ cells.
The target of experiment [2] is T1, Rad21-PK (cohesin kleisin subunit Rad21) (S. pombe) (UniProt P30776).
T1 sequence: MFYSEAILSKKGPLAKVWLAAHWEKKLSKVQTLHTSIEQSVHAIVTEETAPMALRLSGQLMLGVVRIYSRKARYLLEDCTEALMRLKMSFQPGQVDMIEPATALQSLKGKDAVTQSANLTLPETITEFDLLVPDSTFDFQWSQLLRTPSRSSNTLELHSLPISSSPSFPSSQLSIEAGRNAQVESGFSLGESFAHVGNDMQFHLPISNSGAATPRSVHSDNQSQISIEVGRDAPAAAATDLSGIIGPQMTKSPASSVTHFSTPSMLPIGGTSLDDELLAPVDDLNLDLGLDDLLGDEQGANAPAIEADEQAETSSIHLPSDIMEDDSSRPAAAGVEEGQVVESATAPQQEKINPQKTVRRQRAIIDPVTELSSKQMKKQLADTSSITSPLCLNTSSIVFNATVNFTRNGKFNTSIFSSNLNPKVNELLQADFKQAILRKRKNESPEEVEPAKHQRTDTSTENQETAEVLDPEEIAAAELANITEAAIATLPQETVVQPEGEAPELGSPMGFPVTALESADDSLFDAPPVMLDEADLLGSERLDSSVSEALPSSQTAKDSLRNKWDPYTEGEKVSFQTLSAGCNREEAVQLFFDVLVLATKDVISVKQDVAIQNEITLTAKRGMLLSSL
The description is as above.

As to “Tor2, the kinase subunit of TORC1 (from UniProt Q9Y7K2 1-2337)”, the binding entry in experiment [1] and in experiment [2] was “binds” in each case.
